Assay [1] deals with RB-NP (human RB1 residues 40-787, RB-N and RB-P domains, MBP tag removed) (human) (UniProt P06400). In words: SEC-MALS; multi-angle light scattering recorded in flow mode, molecular weight as a function of elution volume; measured mass compared with predicted mass; both purified.
The target of assay [2] is MBP-RB-NP (His6-MBP fused to the N-terminus of human RB1 residues 40-787) (human) (UniProt P06400). The description is as above.

No constants are given. Whether binding was seen depends on the method and setting. Tags and fused reporters may be left off the sequences shown.

Consider 2 molecules from PMC3597711.

B1: RB-NP (human RB1 residues 40-787, RB-N and RB-P domains, MBP tag removed) (domain or fragment, UniProt P06400 40-787)
chain: EDLPLVRLEFEETEEPDFTALCQKLKIPDHVRERAWLTWEKVSSVDGVLGGYIQKKKELWGICIFIAAVDLDEMSFTFTELQKNIEISVHKFFNLLKEIDTSTKVDNAMSRLLKKYDVLFALFSKLERTCELIYLTQPSSSISTEINSALVLKVSWITFLLAKGEVLQMEDDLVISFQLMLCVLDYFIKLSPPMLLKEPYKTAVIPINGSPRTPRRGQNRSARIAKQLENDTRIIEVLCKEHECNIDEVKNVYFKNFIPFMNSLGLVTSNGLPEVENLSKRYEEIYLKNKDLDARLFLDHDKTLQTDSIDSFETQRTPRKSNLDEEVNVIPPHTPVRTVMNTIQQLMMILNSASDQPSENLISYFNNCTVNPKESILKRVKDIGYIFKEKFAKAVGQGCVEIGSQRYKLGVRLYYRVMESMLKSEEERLSIQNFSKLLNDNIFHMSLLACALEVVMATYSRSTSQNLDSGTDLSFPWILNVLNLKAFDFYKVIESFIKAEGNLTREMIKHLERCEHRIMESLAWLSDSPLFDLIKQSKDREGPTDHLESACPLNLPLQNNHTAADMYLSPVRSPKKKGSTTRVNSTANAETQATSAFQTQKPLKSTSLSLFYKKVYRLAYLRLNTLCERLLSEHPELEHIIWTLFQHTLQNEYELMRDRHLDQIMMCSMYGICKVKNIDLKFKIIVTAYKDLPHAVQETFKRVLIKEEEYDSIIVFYNSVFMQRLKTNILQYASTRPPTLSPIPHIPR
Take B1: the binding result in assay [1] is given as “no binding”.

B2: MBP-RB-NP (His6-MBP fused to the N-terminus of human RB1 residues 40-787) (domain or fragment, UniProt P06400 40-787)
chain: B1 chain
With B2, in assay [2], the binding entry is “no binding”.
